Results are given in words; binding and its absence hold for the method and conditions named. Binding seen in cells or lysates may run through a third protein. Some entries that bind do so weakly or less than the wild type. Tags and fused reporters may be left off the sequences shown.
T1: GST-RacE (D. discoideum) (UniProt Q23862)
T1 sequence: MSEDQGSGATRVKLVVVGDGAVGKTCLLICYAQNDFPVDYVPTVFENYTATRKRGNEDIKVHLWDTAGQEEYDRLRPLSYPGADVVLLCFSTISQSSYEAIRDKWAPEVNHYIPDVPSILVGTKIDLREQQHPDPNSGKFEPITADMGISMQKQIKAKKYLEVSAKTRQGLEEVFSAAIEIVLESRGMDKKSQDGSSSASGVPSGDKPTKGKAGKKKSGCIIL

Sequences of proteins named here, by UniProt entry; tags and fusion partners are left off.
UniProt P34147: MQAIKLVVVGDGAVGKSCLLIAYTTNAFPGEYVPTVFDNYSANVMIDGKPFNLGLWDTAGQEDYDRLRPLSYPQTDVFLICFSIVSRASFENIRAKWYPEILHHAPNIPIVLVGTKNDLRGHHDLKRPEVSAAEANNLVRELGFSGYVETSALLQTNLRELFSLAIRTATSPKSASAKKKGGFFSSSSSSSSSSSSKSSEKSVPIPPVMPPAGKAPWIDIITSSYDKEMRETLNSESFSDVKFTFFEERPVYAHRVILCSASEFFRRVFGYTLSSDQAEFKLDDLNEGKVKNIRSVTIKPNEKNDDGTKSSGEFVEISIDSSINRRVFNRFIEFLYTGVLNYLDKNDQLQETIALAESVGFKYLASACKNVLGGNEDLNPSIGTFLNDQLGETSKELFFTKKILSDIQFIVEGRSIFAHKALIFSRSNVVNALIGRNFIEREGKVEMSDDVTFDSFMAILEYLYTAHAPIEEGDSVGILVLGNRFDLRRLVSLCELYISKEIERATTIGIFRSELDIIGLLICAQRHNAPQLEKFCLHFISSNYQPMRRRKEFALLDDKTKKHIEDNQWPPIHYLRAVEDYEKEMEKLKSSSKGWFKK

T2: GFP-CRN7 WT (D. discoideum) (UniProt Q55E54)
T2 sequence: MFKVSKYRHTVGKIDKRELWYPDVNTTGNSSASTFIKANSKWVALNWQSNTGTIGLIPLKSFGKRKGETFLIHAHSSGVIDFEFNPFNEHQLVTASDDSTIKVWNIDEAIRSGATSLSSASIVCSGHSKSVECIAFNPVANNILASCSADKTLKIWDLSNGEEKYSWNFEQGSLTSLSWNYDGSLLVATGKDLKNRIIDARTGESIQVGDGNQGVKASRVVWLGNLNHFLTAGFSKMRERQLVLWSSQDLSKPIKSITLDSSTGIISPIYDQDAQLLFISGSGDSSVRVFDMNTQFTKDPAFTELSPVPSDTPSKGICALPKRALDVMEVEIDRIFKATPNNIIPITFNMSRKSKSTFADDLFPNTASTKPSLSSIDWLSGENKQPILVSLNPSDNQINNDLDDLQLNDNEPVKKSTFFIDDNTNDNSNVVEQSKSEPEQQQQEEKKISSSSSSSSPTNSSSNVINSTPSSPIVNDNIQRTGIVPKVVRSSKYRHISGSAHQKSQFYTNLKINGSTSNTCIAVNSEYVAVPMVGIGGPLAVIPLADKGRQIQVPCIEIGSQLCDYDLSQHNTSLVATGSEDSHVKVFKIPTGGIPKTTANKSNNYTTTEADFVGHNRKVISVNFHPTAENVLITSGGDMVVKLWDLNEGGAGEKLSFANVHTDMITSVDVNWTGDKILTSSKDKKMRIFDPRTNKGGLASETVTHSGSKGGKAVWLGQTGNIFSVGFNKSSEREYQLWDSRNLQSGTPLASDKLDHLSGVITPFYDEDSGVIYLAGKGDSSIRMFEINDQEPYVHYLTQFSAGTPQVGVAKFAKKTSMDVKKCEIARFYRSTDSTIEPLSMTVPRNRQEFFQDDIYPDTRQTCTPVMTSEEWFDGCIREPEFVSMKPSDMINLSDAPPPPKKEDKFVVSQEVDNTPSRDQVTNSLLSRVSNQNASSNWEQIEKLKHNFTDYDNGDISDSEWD


Tests used:
[1] = molecular target: GST-Rac1a (D. discoideum) (UniProt P34144); test: pull-down; GST-Rac proteins (or GST) preloaded with GDP or GTPγS on Glutathione Sepharose 4B beads, incubated with lysates of D. discoideum cells expressing GFP-tagged CRN7 proteins; lysis buffer 25 mM Tris-HCl pH 7.5, 100 mM NaCl, 5 mM MgCl2, 2 mM EGTA, 2 mM DTT, 1% Nonidet P-40; western blot with GFP mAb K3-184-2; only the target purified
[2] = molecular target: GST-Rac1b (D. discoideum) (UniProt P34145); test: as above
GST-RacA (D. discoideum) = GST-RacA (D. discoideum) (UniProt P34147); test: as above
GST-RacE (D. discoideum) = molecular target: T1, GST-RacE (D. discoideum); test: as above
[3] = molecular target: T2, GFP-CRN7 WT (D. discoideum); test: co-IP; GFP-CRN7 precipitated with GFP-trap beads from cell lysate, 2 hours at 4 °C; SCAR detected with polyclonal antibodies

Row | Binder | binding [1] | binding [2] | binding (GST-RacA (D. discoideum)) | binding (GST-RacE (D. discoideum)) | binding [3]
1 | GFP-CRN7 WT (protein, UniProt Q55E54 1-962) MFKVSKYRHTVGKIDKRELWYPDVNTTGNSSASTFIKANSKWVALNWQSNTGTIGLIPLKSFGKRKGETFLIHAHSSGVIDFEFNPFNEHQLVTASDDSTIKVWNIDEAIRSGATSLSSASIVCSGHSKSVECIAFNPVANNILASCSADKTLKIWDLSNGEEKYSWNFEQGSLTSLSWNYDGSLLVATGKDLKNRIIDARTGESIQVGDGNQGVKASRVVWLGNLNHFLTAGFSKMRERQLVLWSSQDLSKPIKSITLDSSTGIISPIYDQDAQLLFISGSGDSSVRVFDMNTQFTKDPAFTELSPVPSDTPSKGICALPKRALDVMEVEIDRIFKATPNNIIPITFNMSRKSKSTFADDLFPNTASTKPSLSSIDWLSGENKQPILVSLNPSDNQINNDLDDLQLNDNEPVKKSTFFIDDNTNDNSNVVEQSKSEPEQQQQEEKKISSSSSSSSPTNSSSNVINSTPSSPIVNDNIQRTGIVPKVVRSSKYRHISGSAHQKSQFYTNLKINGSTSNTCIAVNSEYVAVPMVGIGGPLAVIPLADKGRQIQVPCIEIGSQLCDYDLSQHNTSLVATGSEDSHVKVFKIPTGGIPKTTANKSNNYTTTEADFVGHNRKVISVNFHPTAENVLITSGGDMVVKLWDLNEGGAGEKLSFANVHTDMITSVDVNWTGDKILTSSKDKKMRIFDPRTNKGGLASETVTHSGSKGGKAVWLGQTGNIFSVGFNKSSEREYQLWDSRNLQSGTPLASDKLDHLSGVITPFYDEDSGVIYLAGKGDSSIRMFEINDQEPYVHYLTQFSAGTPQVGVAKFAKKTSMDVKKCEIARFYRSTDSTIEPLSMTVPRNRQEFFQDDIYPDTRQTCTPVMTSEEWFDGCIREPEFVSMKPSDMINLSDAPPPPKKEDKFVVSQEVDNTPSRDQVTNSLLSRVSNQNASSNWEQIEKLKHNFTDYDNGDISDSEWD | binds weakly | binds weakly | binds | binds | –
2 | SCAR (protein, UniProt Q54NF8 1-443) MVLITRYLPSVTDNNQPALEGQSKDQIVDTVITSTTVGIINQLTMLVAHSNSIFTALANDANLVTQRIEKLGSRIRPLIQSIPSIEDYHRNTSIDTMNSKPRAEFHADNSERNQHFTHASIPASINTVYEKCKPPPNLQLLDPYMDDGQKSLKLYTNPDFFMDEWVAEQQKLHEEARQRKRERREARLKKKGEKNEVEVKKVKSVTKVRYDPVTGEKITINIESPHTSSPQIQHQSNNTATPQHTTQHFGTNQYQAPPPPPLSQSSPSQQHSPINSYTPPPPPLNTSTPSPSSSFQGRPPSTGFNTPPPPMSNNNNMPPPPPMQQNGGAANNRLSVHNSAPIVAAPAPPPPPPPPSAPAPPPPPMAKAGGGASDIKPKASGARSDLLSSIMQGMALKPAEERKVAEAPKKEEALNVADILARRIAWAGDSDSSEDESDDSDWD | – | – | – | – | binds weakly
